Binding data for 3 molecules are collected here from article PMC6443784.

Chains of the proteins cited; added tags and fusions are not shown.
UniProt Q80TA9: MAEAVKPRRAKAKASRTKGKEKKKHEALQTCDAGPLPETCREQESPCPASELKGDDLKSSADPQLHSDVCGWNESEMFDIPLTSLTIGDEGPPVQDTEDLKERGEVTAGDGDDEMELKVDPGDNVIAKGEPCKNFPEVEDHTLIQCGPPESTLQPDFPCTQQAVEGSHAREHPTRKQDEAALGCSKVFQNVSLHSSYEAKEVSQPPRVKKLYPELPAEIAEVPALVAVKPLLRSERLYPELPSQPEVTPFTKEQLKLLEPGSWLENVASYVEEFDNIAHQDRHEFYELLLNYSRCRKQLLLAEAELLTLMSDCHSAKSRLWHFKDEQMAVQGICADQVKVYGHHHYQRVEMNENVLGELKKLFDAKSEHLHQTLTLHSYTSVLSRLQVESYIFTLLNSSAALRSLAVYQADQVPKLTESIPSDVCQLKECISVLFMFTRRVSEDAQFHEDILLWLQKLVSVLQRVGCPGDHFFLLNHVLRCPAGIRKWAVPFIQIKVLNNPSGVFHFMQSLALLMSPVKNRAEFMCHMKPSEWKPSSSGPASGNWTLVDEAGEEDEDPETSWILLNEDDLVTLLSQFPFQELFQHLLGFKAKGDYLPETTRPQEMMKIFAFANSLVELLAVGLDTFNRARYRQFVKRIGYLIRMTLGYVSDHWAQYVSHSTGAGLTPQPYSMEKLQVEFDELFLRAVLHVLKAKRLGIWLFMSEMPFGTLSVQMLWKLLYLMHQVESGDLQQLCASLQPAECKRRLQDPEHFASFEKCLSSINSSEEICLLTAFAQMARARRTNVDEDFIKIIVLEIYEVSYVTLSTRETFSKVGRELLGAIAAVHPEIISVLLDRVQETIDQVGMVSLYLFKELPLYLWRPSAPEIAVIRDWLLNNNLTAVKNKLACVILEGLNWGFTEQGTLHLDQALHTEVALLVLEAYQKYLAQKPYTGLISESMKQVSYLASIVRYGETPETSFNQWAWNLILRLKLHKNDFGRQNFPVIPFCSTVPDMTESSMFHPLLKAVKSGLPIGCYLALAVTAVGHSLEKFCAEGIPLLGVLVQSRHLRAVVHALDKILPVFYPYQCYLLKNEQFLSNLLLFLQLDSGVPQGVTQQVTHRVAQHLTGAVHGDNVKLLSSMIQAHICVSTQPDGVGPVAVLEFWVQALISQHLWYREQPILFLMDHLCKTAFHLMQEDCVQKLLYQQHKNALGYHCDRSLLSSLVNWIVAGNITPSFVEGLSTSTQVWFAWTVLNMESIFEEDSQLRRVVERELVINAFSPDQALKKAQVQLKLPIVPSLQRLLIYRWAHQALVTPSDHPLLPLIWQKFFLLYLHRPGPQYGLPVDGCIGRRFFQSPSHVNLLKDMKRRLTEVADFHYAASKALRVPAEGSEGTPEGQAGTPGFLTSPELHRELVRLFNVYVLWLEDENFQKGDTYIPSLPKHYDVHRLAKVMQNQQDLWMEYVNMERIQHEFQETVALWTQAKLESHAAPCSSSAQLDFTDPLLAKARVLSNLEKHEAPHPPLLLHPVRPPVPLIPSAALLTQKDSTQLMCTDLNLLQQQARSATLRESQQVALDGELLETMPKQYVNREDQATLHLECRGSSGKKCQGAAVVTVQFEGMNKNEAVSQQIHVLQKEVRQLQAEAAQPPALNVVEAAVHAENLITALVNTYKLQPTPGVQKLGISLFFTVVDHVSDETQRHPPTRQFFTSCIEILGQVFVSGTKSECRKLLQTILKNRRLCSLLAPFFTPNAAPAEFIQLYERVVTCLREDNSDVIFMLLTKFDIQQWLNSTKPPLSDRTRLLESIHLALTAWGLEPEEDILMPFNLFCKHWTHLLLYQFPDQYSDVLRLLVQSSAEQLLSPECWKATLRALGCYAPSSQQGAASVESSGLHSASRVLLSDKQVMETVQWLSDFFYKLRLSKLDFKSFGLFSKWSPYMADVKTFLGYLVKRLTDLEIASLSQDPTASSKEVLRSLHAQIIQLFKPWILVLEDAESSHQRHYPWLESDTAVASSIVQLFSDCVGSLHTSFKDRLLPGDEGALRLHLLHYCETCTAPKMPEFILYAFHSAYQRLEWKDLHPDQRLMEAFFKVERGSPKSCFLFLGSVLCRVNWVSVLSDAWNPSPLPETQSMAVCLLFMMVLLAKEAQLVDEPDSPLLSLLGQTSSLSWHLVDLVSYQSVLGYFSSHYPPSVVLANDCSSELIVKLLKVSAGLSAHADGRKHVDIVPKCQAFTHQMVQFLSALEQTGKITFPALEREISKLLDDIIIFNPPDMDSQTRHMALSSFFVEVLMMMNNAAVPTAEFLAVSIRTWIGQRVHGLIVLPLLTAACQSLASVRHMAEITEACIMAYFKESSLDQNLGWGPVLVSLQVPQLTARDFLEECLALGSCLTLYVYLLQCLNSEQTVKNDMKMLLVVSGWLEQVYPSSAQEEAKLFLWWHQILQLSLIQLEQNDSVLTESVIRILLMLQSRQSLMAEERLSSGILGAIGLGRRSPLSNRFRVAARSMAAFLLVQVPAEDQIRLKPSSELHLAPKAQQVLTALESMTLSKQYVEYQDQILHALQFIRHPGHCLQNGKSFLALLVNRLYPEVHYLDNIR

No constants are given. Whether binding was seen depends on the method and setting. In cells and extracts the contact can be indirect. Some entries that bind do so weakly or less than the wild type. For part of these data: Tags and fused reporters may be left off the sequences shown.

The target of test [1] is T1, USP8 (endogenous, mouse ESCs) (mouse (endogenous in mouse ESCs)) (UniProt Q80U87).
T1 sequence: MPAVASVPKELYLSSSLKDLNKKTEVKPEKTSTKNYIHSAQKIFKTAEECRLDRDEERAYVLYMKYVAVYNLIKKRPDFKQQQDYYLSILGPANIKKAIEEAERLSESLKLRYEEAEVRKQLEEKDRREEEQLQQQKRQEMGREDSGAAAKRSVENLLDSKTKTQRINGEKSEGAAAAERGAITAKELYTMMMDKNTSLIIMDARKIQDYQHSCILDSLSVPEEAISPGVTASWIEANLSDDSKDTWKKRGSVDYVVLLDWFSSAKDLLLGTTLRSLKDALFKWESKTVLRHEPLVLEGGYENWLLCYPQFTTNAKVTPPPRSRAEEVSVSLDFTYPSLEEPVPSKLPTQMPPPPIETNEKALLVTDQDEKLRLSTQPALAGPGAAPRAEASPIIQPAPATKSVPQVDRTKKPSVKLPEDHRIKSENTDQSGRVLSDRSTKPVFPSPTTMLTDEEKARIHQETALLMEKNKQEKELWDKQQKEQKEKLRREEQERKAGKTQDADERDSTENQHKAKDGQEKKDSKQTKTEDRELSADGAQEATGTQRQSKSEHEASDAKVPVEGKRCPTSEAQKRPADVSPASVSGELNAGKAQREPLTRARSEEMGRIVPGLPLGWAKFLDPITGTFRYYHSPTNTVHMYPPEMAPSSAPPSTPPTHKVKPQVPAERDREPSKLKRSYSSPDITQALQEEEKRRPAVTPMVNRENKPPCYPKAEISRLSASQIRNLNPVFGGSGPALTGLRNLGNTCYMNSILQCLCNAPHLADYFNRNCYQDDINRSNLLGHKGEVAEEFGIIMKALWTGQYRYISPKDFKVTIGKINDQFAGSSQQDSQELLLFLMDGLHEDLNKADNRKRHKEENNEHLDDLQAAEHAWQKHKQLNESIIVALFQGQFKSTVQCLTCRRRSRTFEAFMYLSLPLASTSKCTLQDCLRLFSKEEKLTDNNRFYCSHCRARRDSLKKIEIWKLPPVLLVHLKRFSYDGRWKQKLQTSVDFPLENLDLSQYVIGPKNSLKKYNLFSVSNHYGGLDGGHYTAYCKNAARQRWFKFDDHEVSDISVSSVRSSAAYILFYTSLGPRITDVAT
The experiment in a line: co-IP; endogenous proteins in ESCs, immunoprecipitation with anti-USP8 antibody, blot for EPG5.

Test [2] addresses Flag-tagged EPG5 (mouse) (UniProt Q80TA9). In words: co-IP; HEK293T cells transfected with Flag-Epg5 and/or HA-Usp8; lysis buffer 50 mM Tris-HCl pH 7.4, 150 mM NaCl, 1% NP-40, 0.5% sodium deoxycholate, 0.1% SDS; A/G agarose beads overnight at 4 °C.
Test [3] addresses HA-EPG5 (stable ESC line) (mouse) (UniProt Q80TA9). The experiment in a line: co-IP; stable ESC lines harboring HA-EPG5 and/or Myc-USP8 vectors; lysates.

Consider “EPG5 (endogenous, mouse ESCs) (from UniProt Q80TA9 1-2572)”, for which the binding result in test [1] was “binds”.

B1: HA-tagged USP8 (enzyme, UniProt Q80U87 1-1080)
chain: T1 sequence
With B1, the binding result in test [2] is listed as “binds”.

B2: Myc-USP8 (stable ESC line) (enzyme, UniProt Q80U87 1-1080)
chain: T1 sequence
For B2, the binding entry in test [3] was “binds”.
